No constants are given. Whether binding was seen depends on the method and setting. In cells and extracts the contact can be indirect. Some binding calls cover weakened binding; strength is not graded here.

Amino acid sequences for entries named in this document (tags omitted).
UniProt P01106: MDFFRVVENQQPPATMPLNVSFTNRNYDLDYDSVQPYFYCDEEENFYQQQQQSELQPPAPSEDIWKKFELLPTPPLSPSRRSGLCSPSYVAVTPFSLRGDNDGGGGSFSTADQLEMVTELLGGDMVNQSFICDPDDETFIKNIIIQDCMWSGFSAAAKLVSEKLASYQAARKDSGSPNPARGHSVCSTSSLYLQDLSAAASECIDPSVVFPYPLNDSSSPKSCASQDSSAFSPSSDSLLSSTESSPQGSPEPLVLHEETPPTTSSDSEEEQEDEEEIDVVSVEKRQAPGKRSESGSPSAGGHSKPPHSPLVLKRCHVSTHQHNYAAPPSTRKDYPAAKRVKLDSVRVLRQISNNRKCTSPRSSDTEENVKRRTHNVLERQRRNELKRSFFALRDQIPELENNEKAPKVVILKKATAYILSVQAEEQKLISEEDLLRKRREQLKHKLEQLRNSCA
UniProt Q969H0: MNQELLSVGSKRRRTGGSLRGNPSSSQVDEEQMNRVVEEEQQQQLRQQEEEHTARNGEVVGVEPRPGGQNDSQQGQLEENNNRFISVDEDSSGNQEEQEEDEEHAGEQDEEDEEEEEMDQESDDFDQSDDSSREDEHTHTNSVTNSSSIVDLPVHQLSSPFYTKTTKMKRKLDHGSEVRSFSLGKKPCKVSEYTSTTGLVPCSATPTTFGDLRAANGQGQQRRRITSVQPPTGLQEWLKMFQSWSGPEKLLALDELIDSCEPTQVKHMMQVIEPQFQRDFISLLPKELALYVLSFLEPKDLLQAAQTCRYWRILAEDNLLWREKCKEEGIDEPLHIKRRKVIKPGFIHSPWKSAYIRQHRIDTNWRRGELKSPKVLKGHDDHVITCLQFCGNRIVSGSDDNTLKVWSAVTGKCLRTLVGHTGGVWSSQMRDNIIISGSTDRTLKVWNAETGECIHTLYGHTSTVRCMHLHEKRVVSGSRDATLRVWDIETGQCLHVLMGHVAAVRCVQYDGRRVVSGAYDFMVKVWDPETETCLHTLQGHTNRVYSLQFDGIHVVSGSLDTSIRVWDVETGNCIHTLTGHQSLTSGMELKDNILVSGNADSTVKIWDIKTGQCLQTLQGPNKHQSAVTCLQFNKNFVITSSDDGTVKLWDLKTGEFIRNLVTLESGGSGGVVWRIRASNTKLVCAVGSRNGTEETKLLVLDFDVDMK
UniProt P28340: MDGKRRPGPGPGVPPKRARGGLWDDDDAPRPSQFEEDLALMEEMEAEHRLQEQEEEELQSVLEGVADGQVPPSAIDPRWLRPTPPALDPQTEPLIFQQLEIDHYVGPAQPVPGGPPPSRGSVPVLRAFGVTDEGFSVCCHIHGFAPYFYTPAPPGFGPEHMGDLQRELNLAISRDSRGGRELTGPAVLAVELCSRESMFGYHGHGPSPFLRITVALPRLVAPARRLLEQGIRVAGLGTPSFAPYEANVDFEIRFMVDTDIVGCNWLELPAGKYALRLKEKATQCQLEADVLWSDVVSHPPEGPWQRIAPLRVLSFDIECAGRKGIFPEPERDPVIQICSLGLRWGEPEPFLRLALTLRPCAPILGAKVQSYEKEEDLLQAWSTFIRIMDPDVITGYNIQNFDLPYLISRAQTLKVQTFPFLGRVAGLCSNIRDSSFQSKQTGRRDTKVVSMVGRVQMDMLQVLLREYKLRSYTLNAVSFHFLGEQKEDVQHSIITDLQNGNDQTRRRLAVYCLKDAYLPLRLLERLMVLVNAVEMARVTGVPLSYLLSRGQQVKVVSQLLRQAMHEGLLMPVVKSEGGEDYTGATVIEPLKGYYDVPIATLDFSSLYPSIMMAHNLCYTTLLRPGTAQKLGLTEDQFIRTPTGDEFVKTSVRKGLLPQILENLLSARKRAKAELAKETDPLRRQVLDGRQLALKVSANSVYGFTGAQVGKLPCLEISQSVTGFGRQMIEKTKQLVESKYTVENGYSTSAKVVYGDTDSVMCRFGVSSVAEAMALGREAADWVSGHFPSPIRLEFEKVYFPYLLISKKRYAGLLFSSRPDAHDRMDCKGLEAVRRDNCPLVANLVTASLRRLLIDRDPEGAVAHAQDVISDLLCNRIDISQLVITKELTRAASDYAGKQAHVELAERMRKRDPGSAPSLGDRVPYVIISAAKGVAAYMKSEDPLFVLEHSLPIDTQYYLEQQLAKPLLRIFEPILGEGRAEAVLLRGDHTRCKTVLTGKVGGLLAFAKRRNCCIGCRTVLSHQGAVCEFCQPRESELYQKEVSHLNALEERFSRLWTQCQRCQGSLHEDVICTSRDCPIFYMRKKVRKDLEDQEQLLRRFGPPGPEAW

Experiment [1] concerns the target MYC (endogenous) (human (endogenous in T24, 5637, UM-UC-3)) (UniProt P01106). Description: proximity ligation; Duolink in situ PLA on fixed 5637 cells, endogenous proteins, confocal microscopy; with or without POLD1 depletion.
The target is the same in experiment [2]. Put plainly: co-IP; endogenous proteins in T24, 5637 or UM-UC-3 cells (1 x 10^7 cells); IP binding buffer (PBS, 0.3% Tween 20, 75 mM NaCl); some samples with MG132 (10 μM, 6 h), POLD1 and/or FBXW7α knock-down; Western blot. On the technique in general: Immunoblotting shows a protein as a band on a membrane.
Experiment [3] has as its target FBXW7α (endogenous) (human (endogenous in T24, 5637, UM-UC-3)) (UniProt Q969H0). The experiment is described as above.

In the case of “FBXW7α (endogenous) (from UniProt Q969H0 1-707)”, the binding result in experiment [1] and in experiment [2] was “binds” each time.

“POLD1 (endogenous) (from UniProt P28340 1-1107)”: the binding result in experiment [1], in experiment [3] and in experiment [2] was “binds” in each case.

Values taken from article PMC10140023.
